# Test results published in the supplement of paper PMC8551327.
# This is one part of the list. No stated cut-off is given here; in the data, active = 1.25 or more and inactive = the rest. Single values are uncertain, as repeats are few or missing.
# Tested on: Kcc2-LUC knock-in mouse primary cortical neurons (Kcc2 promoter reporter)
# Assay: Kcc2 promoter-driven luciferase activity relative to vehicle control (fold of vehicle (ratio)); higher = stronger Kcc2 promoter activation (Kcc2 expression enhancer)
# Conditions: 100 nM; 48 h
row,SMILES,Kcc2 promoter-driven luciferase activity
1,CC(=O)Oc1ccc2ccc(=O)oc2c1OC(C)=O [Daphnetin Diacetate],inactive: 0.43
2,CN(C)c1nc(=NCc2ccco2)ss1,inactive: 0.88
3,COc1ccc(N=C2C(=Nc3ccc(OC)cc3)N(c3ccc(N(C)C)cc3)C(=S)N2c2ccc(OC)cc2)cc1,inactive: 1.01
4,"CC(C)(C)NCCC(O)c1cc(C(F)(F)F)nc2c(C(F)(F)F)cccc12 (centres undefined) [1-(2, phosphoric acid]",inactive: 0.85
5,O=C1NC(=O)[C@H]2[C@H]3C=C[C@@H]([C@@H]12)[C@@H]1[C@H]2C(=O)NC(=O)[C@H]2[C@H]31 [Mitindomide],inactive: 0.64
6,CC(C)N.CC(C)N.[Cl-].[Cl-].[OH-].[OH-].[Pt] [Iproplatin],inactive: 0.82
7,Cc1ccc(S(=O)(=O)c2ccc([N+](=O)[O-])o2)cc1 [2-Nitro-5-p-toluenesulfonylfuran],inactive: 0.96
8,CC(=O)/C(C)=N/NC(=O)c1ccccc1O [2-Hydroxy-N'-(3-oxobutan-2-ylidene)benzohydrazide],inactive: 1.24
9,CO[C@H]1/C=C\C=C(/C)C(=O)NC2=CC(=O)C(N)=C(C[C@@H](C)C[C@H](OC)[C@H](O)[C@@H](C)/C=C(\C)[C@@H]1OC(N)=O)C2=O,active: 2.86
10,N#CCCN(CCC#N)c1ccc(C=C2N=C(c3cc([N+](=O)[O-])ccc3Cl)OC2=O)cc1 (stereo in doubt),inactive: 0.82
11,C[C@@H]1[C@H](O)[C@@H](C)/C=C/C=C/C=C/C=C/C=C/C=C/C=C/[C@H](O[C@@H]2O[C@H](C)[C@@H](O)[C@H](N)[C@@H]2O)C[C@@H]2O[C@](O)(C[C@@H](O)C[C@@H](O)[C@H](O)CC[C@@H](O)C[C@@H](O)CC(=O)O[C@H]1C)C[C@H](O)[C@H]2C(=O)O [Amphotericin B],inactive: 1.06
12,N#CC(C#N)=Cc1cccc(Oc2ccccc2)c1 [2-[(3-phenoxyphenyl)methylidene]propanedinitrile],inactive: 1.04
13,O=C(CC1(O)C(=O)Nc2c(Cl)cc(Cl)cc21)c1cccc([N+](=O)[O-])c1 (centres undefined),inactive: 0.85
14,C=C1CC(Cn2cc(Br)c(=O)[nH]c2=O)(c2ccc(-c3ccccc3)cc2)OC1=O (centres undefined),inactive: 0.96
15,O=C1c2ccccc2C(=O)C1C(c1ccc([N+](=O)[O-])cc1)C1C(=O)c2ccccc2C1=O,inactive: 1.04
16,CC(C)[C@@H](C)/C=C/[C@@H](C)[C@H]1CC[C@H]2C3=CC=C4C[C@@H](O)CC[C@]4(C)[C@H]3CC[C@]12C,inactive: 0.93
17,CC[C@@]1(O)C(=O)OCc2c1cc1n(c2=O)Cc2cc3c(N)cccc3nc2-1 [9-Amino-20-camptothecin],inactive: 0.84
18,CC(CN(C)C)C(=O)c1ccccc1C(=O)O (centres undefined),active: 1.31
19,"Cc1cc(N(C)C)ccc1N=Nc1ccc2ncccc2c1 [N,N,3-Trimethyl-4-(quinolin-6-yldiazenyl)aniline]",inactive: 0.92
20,NC1(C(=O)O)CCCC1 [Cycloleucine],inactive: 0.86
21,"CC(Cc1ccccc1)NC1=NCCO1 (centres undefined) [N-(1-Phenylpropan-2-yl)-4,5-dihydrooxazol-2-amine]",inactive: 0.97
22,COC1=C(N)C(=O)c2nc(-c3nc(C(=O)O)c(C)c(-c4ccc(OC)c(OC)c4O)c3N)ccc2C1=O [Streptonigrin; Bruneomycin],inactive: 0.786
23,O=C(Nc1ccccc1-c1nn(C(=S)Nc2ccccc2)c(=S)n(C(=S)Nc2ccccc2)c1=O)C(F)(F)F,inactive: 0.86
24,CCN(CC)CCNc1ccc2nc(C)n3c4ccc(OC)cc4c(=O)c1c23,inactive: 0.87
25,CCOC(=O)/C(=C/c1ccc(N(C)C)cc1)N(CC)CC,inactive: 1.02
26,O=C(/C=C/c1c(O)ccc2ccccc12)c1cccc(O)c1 [3-(2-Hydroxy-1-naphthyl)-1-(3-hydroxyphenyl)-2-propen-1-one],inactive: 1.1
27,COc1cccc(/C=N\NC(=O)C(C)SC(C)C(=O)N/N=C/c2cccc(OC)c2)c1 (centres undefined),inactive: 0.46
28,Cc1ccc2ccc3ccc(C)nc3c2n1 [Neocuproine],inactive: 0.94
29,Nc1ccccc1C(=O)NC(=O)Nc1ccc(Oc2ncc(Br)cn2)c(Cl)c1,inactive: 0.96

# Random excerpt: 2 entries already listed
row,SMILES,Kcc2 promoter-driven luciferase activity
16,CC(C)[C@@H](C)/C=C/[C@@H](C)[C@H]1CC[C@H]2C3=CC=C4C[C@@H](O)CC[C@]4(C)[C@H]3CC[C@]12C,inactive: 0.93
27,COc1cccc(/C=N\NC(=O)C(C)SC(C)C(=O)N/N=C/c2cccc(OC)c2)c1 (centres undefined),inactive: 0.46
